From US8563742B2, “Substituted aminothiazole derivatives, pharmaceutical compositions, and methods of use” (High Point Pharmaceuticals, LLC, priority 2008, dated 2013)
Some entries share one result that the patent states for a list of compounds.

The chains behind the UniProt entries cited, without tags or fusion partners.
UniProt P32245, whole entry: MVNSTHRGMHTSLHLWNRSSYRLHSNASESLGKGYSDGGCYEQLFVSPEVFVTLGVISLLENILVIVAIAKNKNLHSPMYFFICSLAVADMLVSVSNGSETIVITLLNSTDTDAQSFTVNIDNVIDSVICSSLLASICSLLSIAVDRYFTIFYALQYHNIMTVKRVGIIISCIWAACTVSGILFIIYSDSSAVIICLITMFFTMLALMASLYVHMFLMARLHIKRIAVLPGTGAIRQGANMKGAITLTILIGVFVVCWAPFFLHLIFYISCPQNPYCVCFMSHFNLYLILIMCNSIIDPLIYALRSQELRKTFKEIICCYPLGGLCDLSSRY

Molecular target: T1, human MC-4R (Homo sapiens, UniProt P32245)
T1 construct: expressed in transfected cells
Test: Biological Assay: inhibition of AgRP functional interaction with MC-4R in presence of αMSH (cAMP production)
Type: cell-based
Conditions: for MC-4R mediated cAMP production: in presence of AgRP and αMSH; for EC50: read-out: effective concentration for half maximal effect (EC50) in the assay
Procedure: The following method is illustrative of techniques that may be employed to measure the ability of the compounds of Formula (I) to functionally modulate the binding of AgRP to melanocortin receptors. In particular, the assay below measures the ability of compounds of Formula (I) or pharmaceutically acceptable salts thereof to functionally modulate the binding of AgRP to MC-4R in the presence of a MC-4R agonist, such as alpha-MSH.
HEK293 cells stably expressing human MC-4R receptors were grown in high glucose Dulbecco's Modified Eagle Medium (DMEM) with 4500 mg glucose/L, L-glutamine, NaHCO3, pyrdoxin HCl, 10 mM HEPES (pH 7.4), 0.1 mM NEAA (non-essential amino acid medium) (GIBCO Cat#11140-050), 10% fetal bovine serum and 700 μg/mL G418. Cells were grown in T-225 flasks at 37° C. with CO2 and humidity control.
On the day of assay, cells were washed twice with phosphate buffered saline without calcium and magnesium (PBS) and incubated with 10 mL PBS until the cells were detached from the flask. The detached cells were centrifuged at 240 g for 5 min. The cell pellet was re-suspended in assay buffer (Earle's balanced salt solution (Sigma E3024) supplemented with 10 mM HEPES, pH 7.4, 0.5 mM IBMX and protease inhibitor cocktail (Roche, 1 complete tablet/75 mL buffer)).
The inhibitory or enhancement effect of compounds on AgRP activity was measured in a multi-component assay containing testing compounds, AgRP83-132 (human, Phoenix Pharma, cat no. 003-53), cells expressing MC-4R, and αMSH (Bachem, cat no. H-1075). Test compounds, AgRP and αMSH were diluted with assay buffer. Test compounds and AgRP were mixed to 4 times of the final concentration and incubated at room temperature for 30 min. Five μL of testing compound/AgRP solution followed with 10 μL of cells (20,000 cells/well) were added to each well of a 384-well reaction plate before 5 μL of αMSH was added. Cells were stimulated with αMSH for an additional 30 min at 37° C.
Stimulation of cells was stopped by adding a lysis buffer and cells were lysed. The intracellular concentration of cAMP may be measured by various techniques known to one of skill in the art including, but not limited to, fluorescence polarization (FP) and time-resolved fluorescence (TRF).
The inhibition was shown by an increase in MC-4R mediated cAMP production.

CCc1ccc(CN(CCC(=O)O)c2nc(C3CCc4ccccc4C3)cs2)s1 (stereo not drawn) [Example 13, 3-{(5-Ethyl-thiophen-2-ylmethyl)-[4-(1,2,3,4-tetrahydro-naphthalen-2-yl)-thiazol-2-yl]-amino}-propionic acid]
MC-4R mediated cAMP production: increase

Cc1ccc(CN(CCC(=O)O)c2nc(C3CCc4ccccc4C3)cs2)s1 (stereo not drawn) [Example 14, 3-{(5-Methyl-thiophen-2-ylmethyl)-[4-(1,2,3,4-tetrahydro-naphthalen-2-yl)-thiazol-2-yl]-amino]-propionic acid]
MC-4R mediated cAMP production: increase

CCC1CCC(c2csc(N(CCC(=O)O)Cc3ccc(C)s3)n2)CC1 (stereo not drawn) [Example 19, 3-[[4-(4-Ethyl-cyclohexyl)-thiazol-2-yl]-(5-methyl-thiophen-2-ylmethyl)-amino]-propionic acid]
MC-4R mediated cAMP production: increase
EC50: < 5 µM

CCc1ccc(CN(CCC(=O)O)c2nc(C3CCC(CC)CC3)cs2)s1 (stereo not drawn) [Example 20, 3-[[4-(4-Ethyl-cyclohexyl)-thiazol-2-yl]-(5-ethyl-thiophen-2-ylmethyl)-amino]-propionic acid]
MC-4R mediated cAMP production: increase
EC50: < 5 µM

CCC1(c2csc(N(CCC(=O)[O-])Cc3ccc(C)s3)n2)CCC(C)CC1.[Na+] (stereo not drawn) [Example 45, Sodium; 3-[[4-(1-ethyl-4-methyl-cyclohexyl)-thiazol-2-yl]-(5-methyl-thiophen-2-ylmethyl)-amino]-propionate]
MC-4R mediated cAMP production: increase

Cc1ccc(CN(CCC(=O)[O-])c2nc(C3(C)CCC(C)CC3)cs2)s1.[Na+] (stereo not drawn) [Example 46, Sodium; 3-[[4-(1,4-dimethyl-cyclohexyl)-thiazol-2-yl]-(5-methyl-thiophen-2-ylmethyl)-amino]-propionate]
MC-4R mediated cAMP production: increase

Cc1ccc(CN(CCC(=O)[O-])c2nc(C3CCC(C4CCCCC4)CC3)cs2)s1.[Na+] (stereo not drawn) [Example 60, Sodium; 3-[(4-bicyclohexyl-4-yl-thiazol-2-yl)-(5-methyl-thiophen-2-ylmethyl)-amino]-propionate]
MC-4R mediated cAMP production: increase
